From paper PMC8881609
These are yes or no findings as the source states them, for the method shown. For some assays here: In cells and extracts the contact can be indirect. Some binding calls cover weakened binding; strength is not graded here. Sequences can lack the tags named with a protein. Values belong to the binder of their own block, whether it stands above or below them.

Key:
[1] = target: T1, TRIM31-Flag WT (human tripartite motif-containing protein 31, E3 ubiquitin ligase) (human) (UniProt Q9BZY9); assay: co-IP; L02 cells transiently transfected with Flag- and HA-tagged vectors, 36 h; Pierce IP Lysis Buffer at 4 °C; Protein A/G magnetic agarose beads, indicated antibodies at 4 °C overnight; blots probed with anti-Flag or anti-HA
T1 sequence: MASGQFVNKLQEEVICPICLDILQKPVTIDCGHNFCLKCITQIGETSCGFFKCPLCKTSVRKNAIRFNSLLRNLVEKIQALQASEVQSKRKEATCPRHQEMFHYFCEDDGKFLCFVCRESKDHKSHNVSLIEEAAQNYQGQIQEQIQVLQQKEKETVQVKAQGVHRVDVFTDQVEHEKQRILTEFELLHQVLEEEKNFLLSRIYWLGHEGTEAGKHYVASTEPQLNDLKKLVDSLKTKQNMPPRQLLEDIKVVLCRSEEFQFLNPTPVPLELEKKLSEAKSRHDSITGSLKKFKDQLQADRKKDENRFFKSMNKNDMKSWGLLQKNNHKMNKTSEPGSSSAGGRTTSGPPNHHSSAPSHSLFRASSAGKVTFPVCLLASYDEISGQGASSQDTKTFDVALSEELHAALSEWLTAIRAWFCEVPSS

[2] = target: T2, GST-tagged TRIM31 (TRIM31-HA-GST) (human) (UniProt Q9BZY9); assay: pull-down; GST fusion from Rosetta (DE3) E. coli extract on GST beads (4 °C, 1 h), then incubated 4 h with Flag-tagged protein prepared by immunoprecipitation; eluate blotted with anti-Flag; Pierce GST Protein Interaction Pull-Down Kit; both purified
T2 sequence: T1 sequence

- binding [1]: binds
B1: RHBDF2-HA WT (human rhomboid 5 homolog 2) (protein, UniProt Q6PJF5 1-856)
chain: MASADKNGGSVSSVSSSRLQSRKPPNLSITIPPPEKETQAPGEQDSMLPEGFQNRRLKKSQPRTWAAHTTACPPSFLPKRKNPAYLKSVSLQEPRSRWQESSEKRPGFRRQASLSQSIRKGAAQWFGVSGDWEGQRQQWQRRSLHHCSMRYGRLKASCQRDLELPSQEAPSFQGTESPKPCKMPKIVDPLARGRAFRHPEEMDRPHAPHPPLTPGVLSLTSFTSVRSGYSHLPRRKRMSVAHMSLQAAAALLKGRSVLDATGQRCRVVKRSFAFPSFLEEDVVDGADTFDSSFFSKEEMSSMPDDVFESPPLSASYFRGIPHSASPVSPDGVQIPLKEYGRAPVPGPRRGKRIASKVKHFAFDRKKRHYGLGVVGNWLNRSYRRSISSTVQRQLESFDSHRPYFTYWLTFVHVIITLLVICTYGIAPVGFAQHVTTQLVLRNKGVYESVKYIQQENFWVGPSSIDLIHLGAKFSPCIRKDGQIEQLVLRERDLERDSGCCVQNDHSGCIQTQRKDCSETLATFVKWQDDTGPPMDKSDLGQKRTSGAVCHQDPRTCEEPASSGAHIWPDDITKWPICTEQARSNHTGFLHMDCEIKGRPCCIGTKGSCEITTREYCEFMHGYFHEEATLCSQVHCLDKVCGLLPFLNPEVPDQFYRLWLSLFLHAGVVHCLVSVVFQMTILRDLEKLAGWHRIAIIFILSGITGNLASAIFLPYRAEVGPAGSQFGLLACLFVELFQSWPLLERPWKAFLNLSAIVLFLFICGLLPWIDNIAHIFGFLSGLLLAFAFLPYITFGTSDKYRKRALILVSLLAFAGLFAALVLWLYIYPINWPWIEHLTCFPFTSRFCEKYELDQVLH

- binding [2]: binds
B2: RHBDF2-Flag (protein, UniProt Q6PJF5 1-856)
chain: B1 chain
